Results taken from paper PMC8699236.
These are yes or no findings as the source states them, for the method shown. Binding seen in cells or lysates may run through a third protein. Here binding means that the protein was enriched with, or labelled near, the bait; the list need not be complete. Tags and fused reporters may be left off the sequences shown.

Sequences of proteins named here, by UniProt entry; tags and fusion partners are left off.
UniProt Q16531: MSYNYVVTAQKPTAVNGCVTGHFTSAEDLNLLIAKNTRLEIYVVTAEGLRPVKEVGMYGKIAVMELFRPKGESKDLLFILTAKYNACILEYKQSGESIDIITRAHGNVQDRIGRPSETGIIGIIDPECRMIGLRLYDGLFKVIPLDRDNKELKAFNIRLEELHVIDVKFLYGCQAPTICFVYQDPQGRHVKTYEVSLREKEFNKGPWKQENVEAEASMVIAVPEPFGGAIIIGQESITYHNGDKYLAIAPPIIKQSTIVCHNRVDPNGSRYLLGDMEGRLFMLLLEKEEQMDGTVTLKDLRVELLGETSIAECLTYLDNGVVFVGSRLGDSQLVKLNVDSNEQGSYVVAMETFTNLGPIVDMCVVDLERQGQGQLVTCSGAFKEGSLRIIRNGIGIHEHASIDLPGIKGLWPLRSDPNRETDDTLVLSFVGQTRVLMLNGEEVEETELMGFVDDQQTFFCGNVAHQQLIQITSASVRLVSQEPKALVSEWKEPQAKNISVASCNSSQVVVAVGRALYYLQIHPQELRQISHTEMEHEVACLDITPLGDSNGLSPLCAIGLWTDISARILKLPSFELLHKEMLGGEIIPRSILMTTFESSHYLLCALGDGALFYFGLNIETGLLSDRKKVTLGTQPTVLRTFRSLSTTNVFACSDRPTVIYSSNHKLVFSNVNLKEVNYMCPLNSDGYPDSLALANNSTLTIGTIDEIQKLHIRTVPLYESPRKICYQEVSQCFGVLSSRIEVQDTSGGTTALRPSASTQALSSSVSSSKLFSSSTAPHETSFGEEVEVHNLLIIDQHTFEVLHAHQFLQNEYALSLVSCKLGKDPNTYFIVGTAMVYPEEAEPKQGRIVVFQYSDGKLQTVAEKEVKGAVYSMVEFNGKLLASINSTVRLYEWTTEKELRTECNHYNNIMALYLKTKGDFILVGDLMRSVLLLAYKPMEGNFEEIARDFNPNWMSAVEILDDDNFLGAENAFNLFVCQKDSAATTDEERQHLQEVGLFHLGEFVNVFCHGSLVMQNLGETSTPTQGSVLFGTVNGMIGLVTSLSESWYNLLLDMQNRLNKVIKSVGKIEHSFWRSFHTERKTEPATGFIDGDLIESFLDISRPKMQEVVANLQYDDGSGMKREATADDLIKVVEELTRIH

B1: RAB3 GTPase Activating Protein Catalytic Subunit 1 (protein, UniProt Q15042 1-981)
chain: MAADSEPESEVFEITDFTTASEWERFISKVEEVLNDWKLIGNSLGKPLEKGIFTSGTWEEKSDEISFADFKFSVTHHYLVQESTDKEGKDELLEDVVPQSMQDLLGMNNDFPPRAHCLVRWYGLREFVVIAPAAHSDAVLSESKCNLLLSSVSIALGNTGCQVPLFVQIHHKWRRMYVGECQGPGVRTDFEMVHLRKVPNQYTHLSGLLDIFKSKIGCPLTPLPPVSIAIRFTYVLQDWQQYFWPQQPPDIDALVGGEVGGLEFGKLPFGACEDPISELHLATTWPHLTEGIIVDNDVYSDLDPIQAPHWSVRVRKAENPQCLLGDFVTEFFKICRRKESTDEILGRSAFEEEGKETADITHALSKLTEPASVPIHKLSVSNMVHTAKKKIRKHRGVEESPLNNDVLNTILLFLFPDAVSEKPLDGTTSTDNNNPPSESEDYNLYNQFKSAPSDSLTYKLALCLCMINFYHGGLKGVAHLWQEFVLEMRFRWENNFLIPGLASGPPDLRCCLLHQKLQMLNCCIERKKARDEGKKTSASDVTNIYPGDAGKAGDQLVPDNLKETDKEKGEVGKSWDSWSDSEEEFFECLSDTEELKGNGQESGKKGGPKEMANLRPEGRLYQHGKLTLLHNGEPLYIPVTQEPAPMTEDLLEEQSEVLAKLGTSAEGAHLRARMQSACLLSDMESFKAANPGCSLEDFVRWYSPRDYIEEEVIDEKGNVVLKGELSARMKIPSNMWVEAWETAKPIPARRQRRLFDDTREAEKVLHYLAIQKPADLARHLLPCVIHAAVLKVKEEESLENISSVKKIIKQIISHSSKVLHFPNPEDKKLEEIIHQITNVEALIARARSLKAKFGTEKCEQEEEKEDLERFVSCLLEQPEVLVTGAGRGHAGRIIHKLFVNAQRAAAMTPPEEELKRMGSPEERRQNSVSDFPPPAGREFILRTTVPRPAPYSKALPQRMYSVLTKEDFRLAGAFSSDTSFF
B2: FKBP Prolyl Isomerase 4 (protein, UniProt Q02790 1-459)
chain: MTAEEMKATESGAQSAPLPMEGVDISPKQDEGVLKVIKREGTGTEMPMIGDRVFVHYTGWLLDGTKFDSSLDRKDKFSFDLGKGEVIKAWDIAIATMKVGEVCHITCKPEYAYGSAGSPPKIPPNATLVFEVELFEFKGEDLTEEEDGGIIRRIQTRGEGYAKPNEGAIVEVALEGYYKDKLFDQRELRFEIGEGENLDLPYGLERAIQRMEKGEHSIVYLKPSYAFGSVGKEKFQIPPNAELKYELHLKSFEKAKESWEMNSEEKLEQSTIVKERGTVYFKEGKYKQALLQYKKIVSWLEYESSFSNEEAQKAQALRLASHLNLAMCHLKLQAFSAAIESCNKALELDSNNEKGLFRRGEAHLAVNDFELARADFQKVLQLYPNNKAAKTQLAVCQQRIRRQLAREKKLYANMFERLAEEENKAKAEASSGDHPTDTEMKEEQKSNTAGSQSQVETEA
B3: SRC Kinase Signaling Inhibitor 1 (protein, UniProt Q9C0H9 1-1183)
chain: MGNAPSQDPERSSPPMLSADDAEYPREYRTLGGGGGGGSGGRRFSNVGLVHTSERRHTVIAAQSLEALSGLQKADADRKRDAFMDHLKSKYPQHALALRGQQDRMREQPNYWSFKTRSSRHTQGAQPGLADQAAKLSYASAESLETMSEAELPLGFSRMNRFRQSLPLSRSASQTKLRSPGVLFLQFGEETRRVHITHEVSSLDTLHALIAHMFPQKLTMGMLKSPNTAILIKDEARNVFYELEDVRDIQDRSIIKIYRKEPLYAAFPGSHLTNGDLRREMVYASRESSPTRRLNNLSPAPHLASGSPPPGLPSGLPSGLQSGSPSRSRLSYAGGRPPSYAGSPVHHAAERLGGAPAAQGVSPSPSAILERRDVKPDEDLASKAGGMVLVKGEGLYADPYGLLHEGRLSLAAAAGDPFAYPGAGGLYKRGSVRSLSTYSAAALQSDLEDSLYKAAGGGGPLYGDGYGFRLPPSSPQKLADVAAPPGGPPPPHSPYSGPPSRGSPVRQSFRKDSGSSSVFAESPGGKTRSAGSASTAGAPPSELFPGPGERSLVGFGPPVPAKDTETRERMEAMEKQIASLTGLVQSALLRGSEPETPSEKIEGSNGAATPSAPCGSGGRSSGATPVSGPPPPSASSTPAGQPTAVSRLQMQLHLRGLQNSASDLRGQLQQLRKLQLQNQESVRALLKRTEAELSMRVSEAARRQEDPLQRQRTLVEEERLRYLNDEELITQQLNDLEKSVEKIQRDVSHNHRLVPGPELEEKALVLKQLGETLTELKAHFPGLQSKMRVVLRVEVEAVKFLKEEPQRLDGLLKRCRGVTDTLAQIRRQVDEGVWPPPNNLLSQSPKKVTAETDFNKSVDFEMPPPSPPLNLHELSGPAEGASLTPKGGNPTKGLDTPGKRSVDKAVSVEAAERDWEEKRAALTQYSAKDINRLLEETQAELLKAIPDLDCASKAHPGPAPTPDHKPPKAPHGQKAAPRTEPSGRRGSDELTVPRYRTEKPSKSPPPPPPRRSFPSSHGLTTTRTGEVVVTSKKDSAFIKKAESEELEVQKPQVKLRRAVSEVARPASTPPIMASAIKDEDDEDRIIAELESGGGSVPPMKVVTPGASRLKAAQGQAGSPDKSKHGKQRAEYMRIQAQQQATKPSKEMSGSNETSSPVSEKPSASRTSIPVLTSFGARNSSISF
B4: Plakophilin 2 (protein, UniProt Q99959 1-881)
chain: MAAPGAPAEYGYIRTVLGQQILGQLDSSSLALPSEAKLKLAGSSGRGGQTVKSLRIQEQVQQTLARKGRSSVGNGNLHRTSSVPEYVYNLHLVENDFVGGRSPVPKTYDMLKAGTTATYEGRWGRGTAQYSSQKSVEERSLRHPLRRLEISPDSSPERAHYTHSDYQYSQRSQAGHTLHHQESRRAALLVPPRYARSEIVGVSRAGTTSRQRHFDTYHRQYQHGSVSDTVFDSIPANPALLTYPRPGTSRSMGNLLEKENYLTAGLTVGQVRPLVPLQPVTQNRASRSSWHQSSFHSTRTLREAGPSVAVDSSGRRAHLTVGQAAAGGSGNLLTERSTFTDSQLGNADMEMTLERAVSMLEADHMLPSRISAAATFIQHECFQKSEARKRVNQLRGILKLLQLLKVQNEDVQRAVCGALRNLVFEDNDNKLEVAELNGVPRLLQVLKQTRDLETKKQITDHTVNLRSRNGWPGAVAHACNPSTLGGQGGRITRSGVRDQPDQHGLLWNLSSNDKLKNLMITEALLTLTENIIIPFSGWPEGDYPKANGLLDFDIFYNVTGCLRNMSSAGADGRKAMRRCDGLIDSLVHYVRGTIADYQPDDKATENCVCILHNLSYQLEAELPEKYSQNIYIQNRNIQTDNNKSIGCFGSRSRKVKEQYQDVPMPEEKSNPKGVEWLWHSIVIRMYLSLIAKSVRNYTQEASLGALQNLTAGSGPMPTSVAQTVVQKESGLQHTRKMLHVGDPSVKKTAISLLRNLSRNLSLQNEIAKETLPDLVSIIPDTVPSTDLLIETTASACYTLNNIIQNSYQNARDLLNTGGIQKIMAISAGDAYASNKASKAASVLLYSLWAHTELHHAYKKAQFKKTDFVNSRTAKAYHSLKD
B5: TBC1 Domain Family Member 4 (protein, UniProt O60343 1-1298)
chain: MEPPSCIQDEPFPHPLEPEPGVSAQPGPGKPSDKRFRLWYVGGSCLDHRTTLPMLPWLMAEIRRRSQKPEAGGCGAPAAREVILVLSAPFLRCVPAPGAGASGGTSPSATQPNPAVFIFEHKAQHISRFIHNSHDLTYFAYLIKAQPDDPESQMACHVFRATDPSQVPDVISSIRQLSKAAMKEDAKPSKDNEDAFYNSQKFEVLYCGKVTVTHKKAPSSLIDDCMEKFSLHEQQRLKIQGEQRGPDPGEDLADLEVVVPGSPGDCLPEEADGTDTHLGLPAGASQPALTSSRVCFPERILEDSGFDEQQEFRSRCSSVTGVQRRVHEGSQKSQPRRRHASAPSHVQPSDSEKNRTMLFQVGRFEINLISPDTKSVVLEKNFKDISSCSQGIKHVDHFGFICRESPEPGLSQYICYVFQCASESLVDEVMLTLKQAFSTAAALQSAKTQIKLCEACPMHSLHKLCERIEGLYPPRAKLVIQRHLSSLTDNEQADIFERVQKMKPVSDQEENELVILHLRQLCEAKQKTHVHIGEGPSTISNSTIPENATSSGRFKLDILKNKAKRSLTSSLENIFSRGANRMRGRLGSVDSFERSNSLASEKDYSPGDSPPGTPPASPPSSAWQTFPEEDSDSPQFRRRAHTFSHPPSSTKRKLNLQDGRAQGVRSPLLRQSSSEQCSNLSSVRRMYKESNSSSSLPSLHTSFSAPSFTAPSFLKSFYQNSGRLSPQYENEIRQDTASESSDGEGRKRTSSTCSNESLSVGGTSVTPRRISWRQRIFLRVASPMNKSPSAMQQQDGLDRNELLPLSPLSPTMEEEPLVVFLSGEDDPEKIEERKKSKELRSLWRKAIHQQILLLRMEKENQKLEASRDELQSRKVKLDYEEVGACQKEVLITWDKKLLNCRAKIRCDMEDIHTLLKEGVPKSRRGEIWQFLALQYRLRHRLPNKQQPPDISYKELLKQLTAQQHAILVDLGRTFPTHPYFSVQLGPGQLSLFNLLKAYSLLDKEVGYCQGISFVAGVLLLHMSEEQAFEMLKFLMYDLGFRKQYRPDMMSLQIQMYQLSRLLHDYHRDLYNHLEENEISPSLYAAPWFLTLFASQFSLGFVARVFDIIFLQGTEVIFKVALSLLSSQETLIMECESFENIVEFLKNTLPDMNTSEMEKIITQVFEMDISKQLHAYEVEYHVLQDELQESSYSCEDSETLEKLERANSQLKRQNMDLLEKLQVAHTKIQALESNLENLLTRETKMKSLIRTLEQEKMAYQKTVEQLRKLLPADALVNCDLLLRDLNCNPNNKAKIGNKP
B6: HAUS Augmin Like Complex Subunit 8 (protein, UniProt Q9BT25 1-410)
chain: MADSSGRGAGKPATGPTNSSSAKKKDKRVQGGRVIESRYLQYEKKTTQKAPAGDGSQTRGKMSEGGRKSSLLQKSKADSSGVGKGDLQSTLLEGHGTAPPDLDLSAINDKSIVKKTPQLAKTISKKPESTSFSAPRKKSPDLSEAMEMMESQTLLLTLLSVKMENNLAEFERRAEKNLLIMCKEKEKLQKKAHELKRRLLLSQRKRELADVLDAQIEMLSPFEAVATRFKEQYRTFATALDTTRHELPVRSIHLEGDGQQLLDALQHELVTTQRLLGELDVGDSEENVQVLDLLSELKDVTAKKDLELRRSFAQVLELSAEASKEAALANQEVWEETQGMAPPSRWYFNQDSACRESGGAPKNTPLSEDDNPGASSAPAQATFISPSEDFSSSSQAEVPPSLSRSGRDLS

Experiments:
[1] = biological target: T1, TRIB1 GFP-fusion protein (human) (UniProt Q96RU8); assay: affinity purification with mass spectrometry; GFP-fusion bait from lysate of transfected HEK293T cells on GFP-Trap beads, 2 h at 4 °C; lysis buffer 50 mM Tris pH 8.0, 1 mM EDTA, 0.1% NP40, 250 mM NaCl, 10% glycerol; on-bead digestion, LC-MS, label-free, against GFP control (or mutant against mutant or wild type)
T1 sequence: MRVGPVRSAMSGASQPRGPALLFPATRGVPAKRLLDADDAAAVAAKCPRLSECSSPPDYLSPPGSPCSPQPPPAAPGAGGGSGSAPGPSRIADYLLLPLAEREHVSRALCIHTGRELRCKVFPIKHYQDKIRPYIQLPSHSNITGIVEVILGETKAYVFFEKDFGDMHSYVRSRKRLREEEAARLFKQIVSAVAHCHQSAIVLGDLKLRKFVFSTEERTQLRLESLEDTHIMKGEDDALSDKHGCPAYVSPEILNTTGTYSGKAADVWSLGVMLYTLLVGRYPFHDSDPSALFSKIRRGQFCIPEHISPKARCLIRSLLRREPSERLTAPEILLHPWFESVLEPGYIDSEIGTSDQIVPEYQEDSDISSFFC

[2] = biological target: T2, TRIB2 GFP-fusion protein (human) (UniProt Q92519); assay: as above
T2 sequence: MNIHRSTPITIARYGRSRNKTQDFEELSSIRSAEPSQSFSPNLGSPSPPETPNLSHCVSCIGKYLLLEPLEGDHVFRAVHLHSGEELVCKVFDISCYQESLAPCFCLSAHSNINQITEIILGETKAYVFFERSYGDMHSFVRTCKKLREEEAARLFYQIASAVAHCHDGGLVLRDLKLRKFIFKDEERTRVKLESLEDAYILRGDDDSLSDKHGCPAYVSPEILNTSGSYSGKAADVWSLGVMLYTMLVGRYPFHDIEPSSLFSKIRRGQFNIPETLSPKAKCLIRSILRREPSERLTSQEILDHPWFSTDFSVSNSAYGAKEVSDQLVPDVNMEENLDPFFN

Molecule	binding [1]	binding [2]
Damage Specific DNA Binding Protein 1 (from UniProt Q16531 1-1140)	binds	binds
B1	–	binds
B2	–	binds
B3	–	binds
B4	–	binds
B5	–	binds
B6	–	binds
